Experimental data reported in paper PMC7093153 (eLife, 2020).

T1: Rad51 (S. pombe), purified (S. pombe) (UniProt P36601)
T1 sequence: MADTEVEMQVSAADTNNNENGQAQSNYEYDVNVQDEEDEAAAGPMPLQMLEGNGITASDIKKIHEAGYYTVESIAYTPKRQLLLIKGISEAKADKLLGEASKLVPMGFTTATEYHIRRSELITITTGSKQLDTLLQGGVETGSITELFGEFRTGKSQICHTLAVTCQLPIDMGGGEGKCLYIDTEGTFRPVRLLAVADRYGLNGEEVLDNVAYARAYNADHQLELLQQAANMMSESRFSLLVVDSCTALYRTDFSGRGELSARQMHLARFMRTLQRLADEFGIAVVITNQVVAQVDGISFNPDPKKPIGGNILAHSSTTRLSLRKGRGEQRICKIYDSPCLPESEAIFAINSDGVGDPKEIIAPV

B1: Rad51 (S. pombe), purified (natural protein, UniProt P36601 1-365, looked up)
chain: MADTEVEMQVSAADTNNNENGQAQSNYEYDVNVQDEEDEAAAGPMPLQMLEGNGITASDIKKIHEAGYYTVESIAYTPKRQLLLIKGISEAKADKLLGEASKLVPMGFTTATEYHIRRSELITITTGSKQLDTLLQGGVETGSITELFGEFRTGKSQICHTLAVTCQLPIDMGGGEGKCLYIDTEGTFRPVRLLAVADRYGLNGEEVLDNVAYARAYNADHQLELLQQAANMMSESRFSLLVVDSCTALYRTDFSGRGELSARQMHLARFMRTLQRLADEFGIAVVITNQVVAQVDGISFNPDPKKPIGGNILAHSSTTRLSLRKGRGEQRICKIYDSPCLPESEAIFAINSDGVGDPKEIIAPV

Columns and labels:
[1] = biological target: T1, Rad51 (S. pombe), purified (S. pombe); test: pull-down
[2] = biological target: T1, Rad51 (S. pombe), purified (S. pombe); test: co-IP
[3] = biological target: Rad57 (untagged) (S. pombe); test: co-IP

Molecule	binding [1]	binding [2]	binding [3]
Swi5-Sfr1-3A complex (Site 1 mutant) (S. pombe)	binds	binds	
Swi5-Sfr1-4A complex (Site 2 mutant) (S. pombe)	binds	binds	
B1			no binding

Results are given in words; binding and its absence hold for the method and conditions named. For some assays here: Binding calls can cover weak binding; strength is not graded here. For some assays here: In cells and extracts the contact can be indirect.
